According to PMC3330820:

Target: T1, GFP-RhoGDI (green fluorescent protein-tagged RhoGDI) (UniProt P52565)
T1 sequence: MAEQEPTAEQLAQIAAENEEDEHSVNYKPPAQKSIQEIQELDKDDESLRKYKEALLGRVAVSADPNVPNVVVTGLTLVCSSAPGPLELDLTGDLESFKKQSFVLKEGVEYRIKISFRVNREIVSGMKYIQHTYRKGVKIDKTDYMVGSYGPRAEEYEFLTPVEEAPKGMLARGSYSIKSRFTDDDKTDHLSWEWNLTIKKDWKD
Experiment: co-IP; XIAP-/- HCT116 cells expressing GFP-RhoGDI with HA-XIAP constructs; immunoprecipitated with anti-GFP antibody-conjugated agarose beads, blotted for XIAP / HA

Substance	binding
HA-XIAP ΔRING (RING domain-deletion) (human) (domain or fragment)	binds weakly
HA-XIAP ΔBIR (total BIR deletion) (human) (domain or fragment)	binds

No constants are given. Whether binding was seen depends on the method and setting. Binding seen in cells or lysates may run through a third protein. Binding can be weak; no strength is given. Sequences can lack the tags named with a protein.
